Positions count from the first letter of the chain named. No constants are given. Whether binding was seen depends on the method and setting. Some results given as binding are weak or reduced against the parent protein; the word gives no strength.
T1: IGSF11-hFc (UniProt Q5DX21)
T1 sequence (looked up): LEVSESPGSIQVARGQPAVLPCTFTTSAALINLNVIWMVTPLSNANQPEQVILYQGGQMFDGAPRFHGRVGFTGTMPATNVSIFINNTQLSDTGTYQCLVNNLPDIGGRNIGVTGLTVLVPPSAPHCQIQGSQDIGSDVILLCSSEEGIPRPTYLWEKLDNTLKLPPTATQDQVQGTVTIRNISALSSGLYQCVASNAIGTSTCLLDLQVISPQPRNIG

B1: A-001 (scFv format) (scFv, V domains shown)
VH: EVQLVESGGGLVKPGGSLRLSCAASGFTFSSYSMNWVRQAPGKGLEWVSSISSSSSYIYYADSVKGRFTISRDNAKNSLYLQMNSLRAEDTAVYYCVRSIIVQALGITSVFDIWGQGTMVTVSS
VL: AIRLTQSPSSLSASVGDRVTISCRASQIISNHLNWYQQKPGKAPKLLIYAASRLQTGVPSRFSGSGSETDYTLTISSLQPEDFATYYCQQSYSNPRTFGHGTKVEIK
B2: A-006 (scFv format) (scFv, V domains shown)
VH: EVQLVESGGGLIQPGGSLRLSCAASGFTVSSNYMSWVRQAPGKGLEWVSVIYSGGSTYYADSVKGRFTISRDNSKNTLYLQMNSLRAEDTAVYYCARGNPYYYGDLQVNFDYWGQGTLVTVSS
VL: QAVVTQEPSLTVSPGGTVTLTCASSTGAVTSGYYPNWFQQKPGQAPRPLIYSTSNKHSWTPARFSGSLLGGKAALTLSGVQPDDEAEYYCLLYYGGDWVFGGGTKLTVL
B3: A-008 (scFv format) (scFv, V domains shown)
VH: QLQLQESGPGLVKPSETLSLTCTVSGGSISSSGYYWGWIRQPPGKGLEWIGSIYYSGSTYYNPSLKSRVTISVDTSKNQFSLKLSSVTAADTAVYYCARHRVRFGEFDAFDIWGQGTMVTVSS
VL: QAVLTQPPSVSGAPGERVTLSCTGTSSNVGADFDVHWYQQFPGTAPRLLIFGSDNRPSGVPDRFSGSKSGTSASLAITGLQVEDEADYYCQAYDVRLSGWVFGGGTKLTVL
B4: A-010 (scFv format) (scFv, V domains shown)
VH: QVQLVQSGAEVKKPGASVKVSCKASGYTFTSYGISWVRQAPGQGLEWMGWISAYNGNTNYAQKLQGRVTMTTDTSTSTAYMELRSLRSDDTAVYYCARVPAWSGQFDYWGQGTLVTVSS
VL: QSALTQPASVSGSPGQSITISCTGSSSDVGGYNYVSWYQQYPGKAPKLMIYDVRSRPSGVSNRFSGSKSGNTASLTISGLQAEDEADYYCTSYTSSNTLVIFGGGTKVTVL
B5: A-012 (scFv format) (scFv, V domains shown)
VH: B2 VH with V5L, A24V
VL: B2 VL with P48A, D83E, D97A
B6: A-013 (scFv format) (scFv, V domains shown)
VH: B2 VH
VL: B2 VL with G32A, P48A, D83E, E87D, D97A
B7: A-014 (scFv format) (scFv, V domains shown)
VH: QVQLVQSGAEVKKPGASVKVSCKASGYTFNDYYIHWVRQAPGQGLEWMGWFNPSTGGANYAQKFQGRVTMTRDTSISTAYLEVSSLRSDDTAVYYCARGNSPDLDYWGQGTLVTVSS
VL: DIQMTQSPDSLTVSLGERATINCKSSQSLLHSSNNKNYLAWYQQRPGQPPKLLIYWASTRQSGVPDRFSGSGSGTDFTLTINSLQADDMAVYYCQQYYTTTPNTFGQGTKLEIK
B8: A-002 (scFv format) (scFv, V domains shown)
VH: B2 VH
VL: B2 VL with L20P, A23G, Y33N, Y34L, P48A, F64I, D83E, D97A
B9: A-016 (scFv format) (scFv, V domains shown)
VH: QVQLQESGAEVKKPGASVKVSCKASGYTFTGYYMHWVRQAPGQGLEWMGGIIPIFGTANYAQKFQGRVTITADESTSTAYMELSSLRSEDTAVYYCAGAGMELTRSGAYYYYGMDVWGQGTTVTVSS
VL: QSALTQPASVSGSPGQSITISCTGTSSDIGGYTFVSWYQQHPGKAPKVMIHDVNNRPSGISNRFSGSKSGNTASLTISGLQAEDEADYYCSSVTSTNTYVFGTGTKVTVL
B10: A-021 (scFv format) (scFv, V domains shown)
VH: B4 VH
VL: QSALTQPASVSGSPGQSITISCTGTSSDVGGYNYVSWYQQHPGKAPKLMIYEVTNRPSGVSDRFSGSKSANTASLTISELQAEDEAVYYCNSYTSGPTYVLFGGGTQLTVL
B11: A-022 (scFv format) (scFv, V domains shown)
VH: EVQLLESGPGLVKPSQTLSLTCTVSGGSISSGGYYWSWIRQHPGKGLEWIGYIYYSGSTYYNPSLKSRVTISVDTSKNQFSLKLSSVTAADTAVYYCARASRSTDYYFDYWGQGTLVTVSS
VL: QPGLTQPPSMSYGLGQTATLTCTGNRNNIGDQGAAWLQQHQGHPPKLLSYRNNNGPSGISERLSASRSGNTASLTISGLQPEDEADYYCSAWDSSLRAWVFGGGTKLTVL
B12: A-024 (scFv format) (scFv, V domains shown)
VH: QMQLVQSGAEVKKPGSSVKVSCKASGGTFSSYAISWVRQAPGQGLEWMGWISAYNGNTNYAQKLQGRVTMTTDTSTSTAYMELRSLRSDDTAVYYCASLGSYGYTGAFDIWGQGTMATVSS
VL: B4 VL with S25T, Y41H, D52E, R54S, S55N, T91S, N97S, I101V, V108L
B13: A-034 (scFv format) (scFv, V domains shown)
VH: QMQLVQSGGGLVKPGGSLRLSCAASGFTFSSYTMNWVRQAPGKGLEWVSSISSIGTYIYYADSVKGRFTISRDNAKNSLYLQMNSLRAEDTAVYYCARVLLSGSYYGYFDSWGQGTLVTVSS
VL: QSVLTQPPSVSGAPGQRVTISCTGSSSNIGAGYDVHWYQQLPGTAPKLFIYGNSNRPSGVPDRFSGSKSGTSASLAITGLQAEDEADYYCQSYDSSLSGYVFGTGTKVTVL
B14: A-035 (scFv format) (scFv, V domains shown)
VH: QVQLVQSGAEVKKPGASVKVSCKASGYTFTGYYMHWVRQAPGQGLEWMGWINPNSGNTGYAQKFQGRVTMTRNTSISTAYMELSSLRSEDTAVYYCARGRLERGYWYFDLWGRGTLVTVSS
VL: NFMLTQPHSVSESPGRTVTISCTRSSGSITSNYVQWYQQRPGSAPTILIYEDKERPSEVPDRFSGSIDISSNSASLTISGLKTEDEADYYCQSYGGTSQGVLFGGGTKVTVL
B15: A-004 (scFv format) (scFv, V domains shown)
VH: EVQLVESGGGLVKPGGSLRLSCAASGFTFSSYSMNWVRQAPGKGLEWVSSISSSSSYIYYADSVKGRFTISRDNAKNSLYLQMNSLRAEDTAVYYCARGQLLWFGESALIDAFDIWGQGTMVTVSS
VL: EIVLTQSPSSLSASVGDRVTITCRASQSISSYLNWYQLKPGKAPKLLIYAASILQSGVPSRFSGSGSGTDFTLTISSLQPEDFAAYYCQQSYSTPRTFGQGTKLEIK
B16: A-005 (scFv format) (scFv, V domains shown)
VH: B2 VH
VL: B2 VL with G16E, K41R, P48A, H57D, D83E, D97A
B17: A-013 (human IgG1 format) (antibody, V domains shown)
VH: B2 VH
VL: B2 VL with G32A, P48A, D83E, E87D, D97A
B18: A-012 (human IgG1 format) (antibody, V domains shown)
VH: B2 VH with V5L, A24V
VL: B2 VL with P48A, D83E, D97A
B19: A-022 (human IgG1 format) (antibody, V domains shown)
VH: B11 VH
VL: B11 VL
B20: A-035 (human IgG1 format) (antibody, V domains shown)
VH: B14 VH
VL: B14 VL

Each binder was assayed against streptavidin (UniProt P22629) (assay: ELISA, scFv).
With B1 the binding was “no binding (tested: <0.025 / <0.05 RFU (legend gives both))”. In the case of B2, the binding is reported as “no binding (tested: <0.025 / <0.05 RFU (legend gives both))”. In the case of B3, the binding is reported as “no binding (tested: <0.025 / <0.05 RFU (legend gives both))”. With B4 the binding was “no binding (tested: <0.025 / <0.05 RFU (legend gives both))”. In the case of B5, the binding is reported as “no binding (tested: <0.025 / <0.05 RFU (legend gives both))”. In the case of B6, the binding is reported as “no binding (tested: <0.025 / <0.05 RFU (legend gives both))”. B7 was tested, and the binding was “no binding (tested: <0.025 / <0.05 RFU (legend gives both))”. In the case of B8, the binding is reported as “no binding (tested: <0.025 / <0.05 RFU (legend gives both))”. B9 was tested, and the binding was “no binding (tested: <0.025 / <0.05 RFU (legend gives both))”. With B10 the binding was “no binding (tested: <0.025 / <0.05 RFU (legend gives both))”. With B11 the binding was “no binding (tested: <0.025 / <0.05 RFU (legend gives both))”. B12 was tested, and the binding was “no binding (tested: <0.025 / <0.05 RFU (legend gives both))”. With B13 the binding was “no binding (tested: <0.025 / <0.05 RFU (legend gives both))”. With B14 the binding was “no binding (tested: <0.025 / <0.05 RFU (legend gives both))”. With B15 the binding was “no binding (tested: <0.025 / <0.05 RFU (legend gives both))”. In the case of B16, the binding is reported as “no binding (tested: <0.025 / <0.05 RFU (legend gives both))”.

These binders were tested against T1, IGSF11-hFc (assay: ELISA, coated IGSF11-hFc, IgG1 format; EC50 grade (# >10 nM, ## 1-10 nM, ### <1 nM)).
In the case of B17, the binding is reported as “binds”. For B18, the binding was “binds”. B19 was tested, and the binding was “binds”. For B20, the binding was “binds”.

From patent US20210061908A1
